At least one compound was matched to its structure with a doubt left.
Tested on: CD4+ T cell accumulation in the lung
Test: GFP+ CD4+ T cell infiltration into the lung after OVA inhalation in the imageable mouse asthma model (OV100 imaging)
Format: in vivo, mouse (C57BL/6)
Details: for numbers of infiltrating GFP+ CD4+ T cells: monitored 48 hours after OVA inhalation

SMILES: C[C@@H]1C[C@H]2[C@@H]3CCC4=CC(=O)C=C[C@]4(C)[C@@]3(F)[C@@H](O)C[C@]2(C)[C@@]1(O)C(=O)CO [Dexamethasone]
- numbers of infiltrating GFP+ CD4+ T cells (4 mg/kg i.p. 1 hour before OVA inhalation): significantly decreased
- numbers of infiltrating GFP+ CD4+ T cells (4 mg/kg i.p. 1 day after OVA inhalation): significantly decreased
- CD4+ T cell infiltration to the lung as compared to controls (0.4, 1 and 4 mg/kg i.p. 1 hour before OVA challenge, monitored 24 hours after OVA inhalation, dose-dependent): significant decrease
